Test results: paper PMC4395284
These are yes or no findings as the source states them, for the method shown. Binding seen in cells or lysates may run through a third protein. These calls come from enrichment with a bait or labelling near it, and not all partners need be listed.

Chains of the proteins cited; added tags and fusions are not shown.
UniProt O54803: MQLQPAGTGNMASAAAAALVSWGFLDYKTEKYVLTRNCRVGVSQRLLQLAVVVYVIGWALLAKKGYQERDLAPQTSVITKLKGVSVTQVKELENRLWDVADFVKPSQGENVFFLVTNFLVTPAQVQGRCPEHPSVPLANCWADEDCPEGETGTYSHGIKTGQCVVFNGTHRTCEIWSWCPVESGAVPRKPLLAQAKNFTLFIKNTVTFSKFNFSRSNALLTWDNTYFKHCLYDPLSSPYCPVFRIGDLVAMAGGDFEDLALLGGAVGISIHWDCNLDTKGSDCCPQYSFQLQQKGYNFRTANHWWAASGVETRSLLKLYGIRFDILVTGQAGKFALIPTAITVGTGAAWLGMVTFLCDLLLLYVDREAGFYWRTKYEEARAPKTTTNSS

B1: splicing factor 3 subunit A1 (SF3A1), mouse hippocampus (protein, UniProt Q8K4Z5 1-791)
chain: MQAGPVQAVPPPPPVATESKQPIEEEASSKEDPTPSKPVVGIIYPPPEVRNIVDKTASFVARNGPEFEARIRQNEINNPKFNFLNPNDPYHAYYRHKVSEFKEGKAQEPSAAIPKVMQQQQQATQQQLPQKVQAQVIQETIVPKEPPPEFEFIADPPSISAFDLDVVKLTAQFVARNGRQFLTQLMQKEQRNYQFDFLRPQHSLFNYFTKLVEQYTKILIPPKGLFSKLKKEAENPREVLDQVCYRVEWAKFQERERKKEEEEKEKERVAYAQIDWHDFVVVETVDFQPNEQGNFPPPTTPEELGARILIQERYEKFGESEEVEMEVESDEEDQEKAEETPSQLDQDTQVQDMDEGSDDEEEGQKVPPPPETPMPPPLPPTPDQVIVRKDYDPKASKPLPPAPAPDEYLVSPITGEKIPASKMQEHMRIGLLDPRWLEQRDRSIREKQSDDEVYAPGLDIESSLKQLAERRTDIFGVEETAIGKKIGEEEIQKPEEKVTWDGHSGSMARTQQAAQANITLQEQIEAIHKAKGLVPEDDTKEKIGPSKPNEIPQQPPPPSSATNIPSSAPPITSVPRPPAMPPPVRTTVVSAVPVMPRPPMASVVRLPPGSVIAPMPPIIHAPRINVVPMPPAAPPIMAPRPPPMIVPTAFVPAPPVAPVPAPAPMPPVHPPPPMEDEPPSKKLKTEDSLMPEEEFLRRNKGPVSIKVQVPNMQDKTEWKLNGQGLVFTLPLTDQVSVIKVKIHEATGMPAGKQKLQYEGIFIKDSNSLAYYNMASGAVIHLALKERGGRKK

Biological target: P2X6 subunit (native, mouse hippocampus) (mouse (endogenous in hippocampus)) (UniProt O54803)
Assay: affinity purification with mass spectrometry; nuclear extracts of adult mouse hippocampus immunoprecipitated with anti-P2X6 antibody or IgG on MagSi-ProteinG beads; eluate resolved on a 2D gel, spots identified by MALDI-TOF/TOF

| binding | Molecule |
| --- | --- |
| binds | spectrin α2 (from UniProt P16546 1-2472) |
| binds | B1 |
